36 targets from the supplement of paper PMC12067093, “Discovery and optimisation of a covalent ligand for TRIM25 and its application to targeted protein ubiquitination” (Chemical Science, 2025) can be followed below.

Sequences of proteins named here, by UniProt entry; tags and fusion partners are left off. A change or cut given only in a name is not applied to a line headed by its entry.
UniProt Q9Y4E5: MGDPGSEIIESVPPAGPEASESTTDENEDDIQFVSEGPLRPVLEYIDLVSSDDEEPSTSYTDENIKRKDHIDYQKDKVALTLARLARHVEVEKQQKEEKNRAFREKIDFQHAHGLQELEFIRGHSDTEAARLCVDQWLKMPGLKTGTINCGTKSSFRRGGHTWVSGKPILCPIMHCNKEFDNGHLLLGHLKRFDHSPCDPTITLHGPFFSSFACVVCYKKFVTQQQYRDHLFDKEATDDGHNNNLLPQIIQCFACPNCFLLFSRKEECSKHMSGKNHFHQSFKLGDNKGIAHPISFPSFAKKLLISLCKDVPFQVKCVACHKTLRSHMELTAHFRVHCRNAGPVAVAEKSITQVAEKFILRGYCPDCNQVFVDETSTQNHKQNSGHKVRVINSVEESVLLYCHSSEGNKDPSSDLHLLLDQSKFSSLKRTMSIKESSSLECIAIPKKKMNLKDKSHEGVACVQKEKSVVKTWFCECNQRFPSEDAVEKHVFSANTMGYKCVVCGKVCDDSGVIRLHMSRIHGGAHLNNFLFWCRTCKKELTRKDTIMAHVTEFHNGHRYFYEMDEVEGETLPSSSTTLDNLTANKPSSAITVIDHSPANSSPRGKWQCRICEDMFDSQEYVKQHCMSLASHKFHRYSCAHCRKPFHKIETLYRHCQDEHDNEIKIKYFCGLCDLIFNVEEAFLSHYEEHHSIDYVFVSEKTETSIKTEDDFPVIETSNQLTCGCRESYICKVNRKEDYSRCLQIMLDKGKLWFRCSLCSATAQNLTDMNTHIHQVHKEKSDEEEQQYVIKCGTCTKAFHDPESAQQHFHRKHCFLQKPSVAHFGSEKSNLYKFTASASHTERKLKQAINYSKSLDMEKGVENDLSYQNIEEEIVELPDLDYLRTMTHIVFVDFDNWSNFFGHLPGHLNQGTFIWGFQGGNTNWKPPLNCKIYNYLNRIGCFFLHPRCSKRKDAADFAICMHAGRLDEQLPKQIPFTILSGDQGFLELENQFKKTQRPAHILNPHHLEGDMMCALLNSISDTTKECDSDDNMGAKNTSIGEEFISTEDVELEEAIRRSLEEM
UniProt Q14202: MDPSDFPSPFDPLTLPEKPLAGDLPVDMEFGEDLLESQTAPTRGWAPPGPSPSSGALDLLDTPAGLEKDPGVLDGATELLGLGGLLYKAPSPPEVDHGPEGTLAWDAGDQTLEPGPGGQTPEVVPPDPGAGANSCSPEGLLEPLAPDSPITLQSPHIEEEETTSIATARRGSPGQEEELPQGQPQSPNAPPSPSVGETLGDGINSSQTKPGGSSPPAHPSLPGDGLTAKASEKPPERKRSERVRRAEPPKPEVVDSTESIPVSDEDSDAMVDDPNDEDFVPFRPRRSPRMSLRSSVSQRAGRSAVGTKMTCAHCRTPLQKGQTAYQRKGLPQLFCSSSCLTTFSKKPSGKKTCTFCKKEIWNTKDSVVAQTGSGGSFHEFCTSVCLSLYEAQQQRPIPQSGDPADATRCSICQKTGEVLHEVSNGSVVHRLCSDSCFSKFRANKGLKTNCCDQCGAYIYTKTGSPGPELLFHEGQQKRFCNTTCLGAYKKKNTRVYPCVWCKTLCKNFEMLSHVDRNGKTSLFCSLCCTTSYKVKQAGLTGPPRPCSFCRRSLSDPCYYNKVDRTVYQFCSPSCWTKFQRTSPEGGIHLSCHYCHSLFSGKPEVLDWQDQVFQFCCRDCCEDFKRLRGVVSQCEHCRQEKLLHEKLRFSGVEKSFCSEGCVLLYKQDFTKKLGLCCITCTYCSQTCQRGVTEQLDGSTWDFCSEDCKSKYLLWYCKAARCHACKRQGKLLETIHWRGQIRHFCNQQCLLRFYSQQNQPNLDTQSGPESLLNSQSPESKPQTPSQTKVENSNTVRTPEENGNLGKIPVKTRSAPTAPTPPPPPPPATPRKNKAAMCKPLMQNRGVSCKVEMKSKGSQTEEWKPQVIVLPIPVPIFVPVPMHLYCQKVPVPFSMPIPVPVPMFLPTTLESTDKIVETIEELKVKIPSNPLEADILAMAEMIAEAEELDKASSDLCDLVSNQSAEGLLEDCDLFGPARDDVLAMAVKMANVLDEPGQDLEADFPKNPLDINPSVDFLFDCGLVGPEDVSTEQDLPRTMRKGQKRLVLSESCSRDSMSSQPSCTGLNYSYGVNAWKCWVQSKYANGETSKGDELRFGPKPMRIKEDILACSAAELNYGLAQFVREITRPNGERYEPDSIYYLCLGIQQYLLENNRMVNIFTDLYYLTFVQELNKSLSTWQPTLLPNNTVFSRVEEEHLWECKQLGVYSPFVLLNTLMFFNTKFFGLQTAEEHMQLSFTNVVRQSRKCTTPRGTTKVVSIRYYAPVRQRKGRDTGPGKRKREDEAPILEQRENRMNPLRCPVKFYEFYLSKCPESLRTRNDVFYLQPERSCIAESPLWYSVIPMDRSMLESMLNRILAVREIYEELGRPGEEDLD
UniProt Q9UBW7: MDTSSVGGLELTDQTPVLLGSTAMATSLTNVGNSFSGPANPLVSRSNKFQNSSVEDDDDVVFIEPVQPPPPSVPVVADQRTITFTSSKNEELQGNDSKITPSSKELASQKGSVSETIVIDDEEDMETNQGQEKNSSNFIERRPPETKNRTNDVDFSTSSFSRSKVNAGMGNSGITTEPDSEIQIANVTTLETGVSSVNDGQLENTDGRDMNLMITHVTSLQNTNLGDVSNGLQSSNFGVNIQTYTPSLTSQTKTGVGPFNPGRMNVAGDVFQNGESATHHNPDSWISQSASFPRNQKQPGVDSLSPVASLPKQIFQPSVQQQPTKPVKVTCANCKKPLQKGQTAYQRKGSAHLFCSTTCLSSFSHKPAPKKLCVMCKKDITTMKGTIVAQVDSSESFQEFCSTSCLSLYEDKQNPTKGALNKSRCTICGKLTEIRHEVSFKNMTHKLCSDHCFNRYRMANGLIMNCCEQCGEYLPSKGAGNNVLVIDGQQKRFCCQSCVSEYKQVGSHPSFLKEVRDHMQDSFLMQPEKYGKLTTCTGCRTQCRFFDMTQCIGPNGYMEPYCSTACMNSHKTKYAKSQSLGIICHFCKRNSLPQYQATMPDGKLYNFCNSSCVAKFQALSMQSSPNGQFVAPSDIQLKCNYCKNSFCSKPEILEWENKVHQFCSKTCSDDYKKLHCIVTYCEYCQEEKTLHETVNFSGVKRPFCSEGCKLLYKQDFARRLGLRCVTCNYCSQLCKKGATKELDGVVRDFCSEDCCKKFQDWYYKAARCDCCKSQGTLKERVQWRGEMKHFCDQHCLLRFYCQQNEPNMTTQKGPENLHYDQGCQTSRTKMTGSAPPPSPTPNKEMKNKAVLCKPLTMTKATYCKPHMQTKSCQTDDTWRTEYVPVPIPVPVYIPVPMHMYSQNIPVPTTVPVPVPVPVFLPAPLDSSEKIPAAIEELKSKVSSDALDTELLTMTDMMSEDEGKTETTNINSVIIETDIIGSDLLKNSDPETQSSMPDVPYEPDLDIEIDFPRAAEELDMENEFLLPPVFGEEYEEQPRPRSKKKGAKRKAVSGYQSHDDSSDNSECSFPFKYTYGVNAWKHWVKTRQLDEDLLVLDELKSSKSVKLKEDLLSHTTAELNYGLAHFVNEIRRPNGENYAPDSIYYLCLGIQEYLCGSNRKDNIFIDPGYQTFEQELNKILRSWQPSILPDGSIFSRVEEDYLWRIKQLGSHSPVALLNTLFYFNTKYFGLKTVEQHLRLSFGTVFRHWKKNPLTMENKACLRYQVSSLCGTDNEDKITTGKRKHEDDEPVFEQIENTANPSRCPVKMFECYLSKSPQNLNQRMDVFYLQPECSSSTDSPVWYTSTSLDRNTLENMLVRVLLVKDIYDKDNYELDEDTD
UniProt Q14966: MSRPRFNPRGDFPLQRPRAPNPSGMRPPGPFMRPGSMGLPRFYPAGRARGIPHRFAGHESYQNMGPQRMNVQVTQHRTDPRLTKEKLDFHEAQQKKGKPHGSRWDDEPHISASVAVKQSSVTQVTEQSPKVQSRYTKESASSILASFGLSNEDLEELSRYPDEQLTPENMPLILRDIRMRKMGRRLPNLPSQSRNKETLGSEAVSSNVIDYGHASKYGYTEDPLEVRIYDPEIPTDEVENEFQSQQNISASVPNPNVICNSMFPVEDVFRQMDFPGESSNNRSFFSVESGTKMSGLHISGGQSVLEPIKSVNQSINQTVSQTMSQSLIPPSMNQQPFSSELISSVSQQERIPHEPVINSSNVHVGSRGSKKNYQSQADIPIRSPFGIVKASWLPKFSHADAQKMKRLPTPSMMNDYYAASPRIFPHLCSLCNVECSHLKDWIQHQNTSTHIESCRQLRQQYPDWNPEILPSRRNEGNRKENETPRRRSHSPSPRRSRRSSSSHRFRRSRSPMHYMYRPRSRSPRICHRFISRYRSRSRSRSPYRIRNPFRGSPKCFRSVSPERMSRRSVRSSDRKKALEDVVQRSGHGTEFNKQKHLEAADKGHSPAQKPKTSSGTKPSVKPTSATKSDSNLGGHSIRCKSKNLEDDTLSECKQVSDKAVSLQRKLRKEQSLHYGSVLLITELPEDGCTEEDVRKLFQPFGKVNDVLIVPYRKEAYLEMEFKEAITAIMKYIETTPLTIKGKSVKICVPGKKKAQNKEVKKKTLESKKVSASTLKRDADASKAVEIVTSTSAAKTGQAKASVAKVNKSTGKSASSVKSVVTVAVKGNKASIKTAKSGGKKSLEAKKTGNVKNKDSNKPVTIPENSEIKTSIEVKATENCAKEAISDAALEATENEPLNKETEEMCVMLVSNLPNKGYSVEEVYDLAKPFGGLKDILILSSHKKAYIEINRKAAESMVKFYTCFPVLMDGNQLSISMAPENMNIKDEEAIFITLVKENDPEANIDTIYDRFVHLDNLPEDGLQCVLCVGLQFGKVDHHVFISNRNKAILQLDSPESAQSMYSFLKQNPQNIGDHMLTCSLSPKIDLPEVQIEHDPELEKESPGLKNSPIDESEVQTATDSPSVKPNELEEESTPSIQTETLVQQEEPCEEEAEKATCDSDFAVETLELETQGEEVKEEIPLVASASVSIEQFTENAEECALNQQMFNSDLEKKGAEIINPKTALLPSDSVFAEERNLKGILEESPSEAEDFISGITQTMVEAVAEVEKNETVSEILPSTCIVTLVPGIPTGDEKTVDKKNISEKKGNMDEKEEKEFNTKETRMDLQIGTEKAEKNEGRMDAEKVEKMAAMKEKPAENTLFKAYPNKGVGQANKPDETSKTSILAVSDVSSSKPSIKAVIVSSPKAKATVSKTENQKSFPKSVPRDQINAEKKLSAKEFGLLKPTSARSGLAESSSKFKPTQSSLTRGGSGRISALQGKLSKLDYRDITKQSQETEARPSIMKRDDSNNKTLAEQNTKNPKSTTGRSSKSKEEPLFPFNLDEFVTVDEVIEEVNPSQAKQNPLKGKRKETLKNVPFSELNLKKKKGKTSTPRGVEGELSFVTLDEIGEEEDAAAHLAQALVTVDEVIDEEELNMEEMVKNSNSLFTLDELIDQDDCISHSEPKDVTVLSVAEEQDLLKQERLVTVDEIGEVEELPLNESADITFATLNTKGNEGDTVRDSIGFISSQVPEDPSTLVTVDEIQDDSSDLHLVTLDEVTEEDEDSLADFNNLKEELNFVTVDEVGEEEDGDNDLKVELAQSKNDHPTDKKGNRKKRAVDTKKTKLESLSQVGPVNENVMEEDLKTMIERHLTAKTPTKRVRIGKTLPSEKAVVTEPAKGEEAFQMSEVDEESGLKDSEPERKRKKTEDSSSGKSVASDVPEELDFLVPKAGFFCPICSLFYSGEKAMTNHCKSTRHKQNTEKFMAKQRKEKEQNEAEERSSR
UniProt Q8ND82: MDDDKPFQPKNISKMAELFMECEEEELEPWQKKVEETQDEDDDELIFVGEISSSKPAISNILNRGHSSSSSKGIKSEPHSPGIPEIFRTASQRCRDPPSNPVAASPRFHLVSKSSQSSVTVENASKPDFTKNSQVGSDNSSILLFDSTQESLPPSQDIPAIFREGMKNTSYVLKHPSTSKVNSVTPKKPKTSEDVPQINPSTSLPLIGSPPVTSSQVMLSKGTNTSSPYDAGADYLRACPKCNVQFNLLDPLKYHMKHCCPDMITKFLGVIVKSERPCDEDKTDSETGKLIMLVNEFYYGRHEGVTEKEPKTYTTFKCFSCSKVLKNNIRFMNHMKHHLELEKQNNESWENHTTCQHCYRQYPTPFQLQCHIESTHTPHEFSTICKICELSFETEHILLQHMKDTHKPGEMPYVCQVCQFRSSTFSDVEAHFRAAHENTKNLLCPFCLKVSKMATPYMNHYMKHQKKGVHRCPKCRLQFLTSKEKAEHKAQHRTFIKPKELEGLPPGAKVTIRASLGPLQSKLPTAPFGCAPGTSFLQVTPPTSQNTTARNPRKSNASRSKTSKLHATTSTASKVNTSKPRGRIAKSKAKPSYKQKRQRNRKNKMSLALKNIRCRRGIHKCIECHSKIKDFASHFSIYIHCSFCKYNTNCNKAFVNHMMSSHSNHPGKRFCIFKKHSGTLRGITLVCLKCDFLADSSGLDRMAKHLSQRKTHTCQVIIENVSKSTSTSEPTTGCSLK

This is one part of the list.
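Further: competitive profiling in live THP-1 cells: cysteine peptides tagged with an iodoacetamide desthiobiotin (IA-DTB) probe, intensity after compound treatment relative to DMSO-treated cells.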

Compound in this experiment: Cc1cc(ccc1-c1ccccc1)C(=O)N1CCCN(CC1)C(=O)CCl [compound 10]
Nature of the experiment: probe-labelled cysteine peptide fold change vs DMSO (competition) (log2 fold change); higher = less target engagement (more negative = stronger competition). The settings on record: 50 µM; THP-1; incubation time: 4 h.
With “ZNF124_Q15973_245_AFSCLSSLQGHIK (UniProt Q15973)”, the “probe-labelled cysteine peptide fold change” value was -0.298. As for “ZNF598_Q86UK7_44_CDHPVCYR (UniProt Q86UK7)”, the “probe-labelled cysteine peptide fold change” value was -0.161.

Turning to “ZNF644_Q9H582_450_HLNVPRPYACR (UniProt Q9H582)”, the “probe-labelled cysteine peptide fold change” value was determined as 0.248.

Take “ZMYND8_Q9ULU4_103_EGQVLCCELCPR (UniProt Q9ULU4)”: the “probe-labelled cysteine peptide fold change” value was 0.432. Turning to “ZNF692_Q9BU19_366_SFSCPEPACGK (UniProt Q9BU19)”, the “probe-labelled cysteine peptide fold change” value is 0.163. The same measure for “ZFYVE21_Q9BQ24_99_QCAECALVSLK (UniProt Q9BQ24)”: -0.384.

Regarding “ZNF207_O43670_54_LYTGPGLAIHCMQVHK (UniProt O43670)”, the “probe-labelled cysteine peptide fold change” value was 0.252.

As to “ZFYVE16_Q7Z3T8_863_QPGVEGLCSK (UniProt Q7Z3T8)”, the “probe-labelled cysteine peptide fold change” value was -0.444. As to “ZNF330_Q9Y3S2_67+70_LPICAQCGK (UniProt Q9Y3S2)”, the “probe-labelled cysteine peptide fold change” value is -0.949. As to “ZMYM4_Q5VZL5_948_ALLCKPITQTK (UniProt Q5VZL5)”, the “probe-labelled cysteine peptide fold change” value was -0.499.

For the target “ZNF451_Q9Y4E5_150_TGTINCGTK (UniProt Q9Y4E5)”, the “probe-labelled cysteine peptide fold change” value was -1.18. On to “ZMYM3_Q14202_633+636_GVVSQCEHCR (UniProt Q14202)”, for which the “probe-labelled cysteine peptide fold change” value was -0.705. “ZNF516_Q92618_827_ECQPLLLAR (UniProt Q92618)”: the “probe-labelled cysteine peptide fold change” value is 0.235.

As to “ZMYM2_Q9UBW7_608_LYNFCNSSCVAK (UniProt Q9UBW7)”, the “probe-labelled cysteine peptide fold change” value is -1.35. Regarding “ZNF638_Q14966_1156_ATCDSDFAVETLELETQGEEVK (UniProt Q14966)”, the “probe-labelled cysteine peptide fold change” value worked out at 0.513. In the case of “ZFP64_Q9NPA5_196_CHTGVKPYK (UniProt Q9NTW7)”, the “probe-labelled cysteine peptide fold change” value was -0.0402.

Turning to “ZNF280C_Q8ND82_358_QNNESWENHTTCQHCYR (UniProt Q8ND82)”, the “probe-labelled cysteine peptide fold change” value was found to be 0.258. As to “ZNF451_Q9Y4E5_741_CLQIMLDK (UniProt Q9Y4E5)”, the “probe-labelled cysteine peptide fold change” value was -0.331. Consider “ZFR_Q96KR1_844+856_CAVSEAAIILNSCVEPK (UniProt Q96KR1)”, for which the “probe-labelled cysteine peptide fold change” value amounted to 0.0996. “ZNF646_O15015_1193_GCQTEASSERPFSCEVCGR (UniProt O15015)”: the “probe-labelled cysteine peptide fold change” value was determined as 0.0379. The figure for “ZFPL1_O95159_24_VNVCEHCLVANHAK (UniProt O95159)” is -0.113. As for “ZMIZ2_Q8NF64_564_LLPAEHCITK (UniProt Q8NF64)”, the “probe-labelled cysteine peptide fold change” value is -0.113. Consider “ZNF598_Q86UK7_864_SAWQATTQQAGLDCR (UniProt Q86UK7)”, for which the “probe-labelled cysteine peptide fold change” value is -0.0742. Take “ZNF638_Q14966_688_EQSLHYGSVLLITELPEDGCTEEDVRK (UniProt Q14966)”: the “probe-labelled cysteine peptide fold change” value worked out at 0.131. In the case of “ZNF670_Q9BS34_114_VFICHSALHR (UniProt Q9BS34)”, the “probe-labelled cysteine peptide fold change” value is -0.962.

With “ZNF638_Q14966_1077_QNPQNIGDHMLTCSLSPK (UniProt Q14966)”, the “probe-labelled cysteine peptide fold change” value is -0.319. “ZFP91_Q96JP5_313+318_CEMEGCGTVLAHPR (UniProt Q96JP5)”: the “probe-labelled cysteine peptide fold change” value is -0.409. The same measure for “ZHX3_Q9H4I2_11_STTPCMIPVK (UniProt Q9H4I2)”: -0.298; for “ZNF746_Q6NUN9_385_CKPPVGLNPR (UniProt Q6NUN9)”: -0.409; for “ZNF579_Q8NAF0_443_HAQVHAGGPAPHPCPR (UniProt Q8NAF0)”: 0.533. Turning to “ZMYM3_Q14202_311+314_MTCAHCR (UniProt Q14202)”, the “probe-labelled cysteine peptide fold change” value was -0.448.

On to “ZNF622_Q969S3_69_GSATYCTVCSK (UniProt Q969S3)”, for which the “probe-labelled cysteine peptide fold change” value is -0.0288. With “ZNF280C_Q8ND82_714_THTCQVIIENVSK (UniProt Q8ND82)”, the “probe-labelled cysteine peptide fold change” value stood at 0.101. In the case of “ZMYM3_Q14202_1073_CWVQSK (UniProt Q14202)”, the “probe-labelled cysteine peptide fold change” value is -0.435. “ZNF106_Q9H2Y7_1620_VLCLHSR (UniProt Q9H2Y7)”: the “probe-labelled cysteine peptide fold change” value came out at 0.198. The figure for “ZMYM2_Q9UBW7_612_LYNFCNSSCVAK (UniProt Q9UBW7)” is -1.33.
